What all share (assay): pull-down; MBP-tagged protein from E. coli lysate bound to amylose resin and washed (1x TBS); soluble lysate of GST-tagged APC fragment added, 2 h at 4 °C; four washes, elution with 10 mM maltose; Western blot with anti-GST and anti-MBP; only the target purified
For orientation: Immunoblotting shows a protein as a band on a membrane.

By UniProt entry, the sequences of proteins in these tests, tags left out. Where a name states a change or a piece, a line headed by the entry shows the natural chain unless it says otherwise. Residues count along the entry.
UniProt P36402: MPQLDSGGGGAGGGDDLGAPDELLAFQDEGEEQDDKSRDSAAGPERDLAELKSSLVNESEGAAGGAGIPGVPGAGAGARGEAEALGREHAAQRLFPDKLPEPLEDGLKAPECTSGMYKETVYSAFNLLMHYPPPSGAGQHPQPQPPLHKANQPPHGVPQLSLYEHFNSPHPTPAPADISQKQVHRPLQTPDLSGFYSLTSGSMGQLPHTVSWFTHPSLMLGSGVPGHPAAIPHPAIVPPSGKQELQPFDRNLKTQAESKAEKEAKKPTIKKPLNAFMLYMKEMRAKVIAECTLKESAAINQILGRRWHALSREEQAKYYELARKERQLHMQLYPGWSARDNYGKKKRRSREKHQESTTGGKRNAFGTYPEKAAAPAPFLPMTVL
MBP-TCF7^152–359: residues 152-359 of P36402
UniProt Q9H6I2: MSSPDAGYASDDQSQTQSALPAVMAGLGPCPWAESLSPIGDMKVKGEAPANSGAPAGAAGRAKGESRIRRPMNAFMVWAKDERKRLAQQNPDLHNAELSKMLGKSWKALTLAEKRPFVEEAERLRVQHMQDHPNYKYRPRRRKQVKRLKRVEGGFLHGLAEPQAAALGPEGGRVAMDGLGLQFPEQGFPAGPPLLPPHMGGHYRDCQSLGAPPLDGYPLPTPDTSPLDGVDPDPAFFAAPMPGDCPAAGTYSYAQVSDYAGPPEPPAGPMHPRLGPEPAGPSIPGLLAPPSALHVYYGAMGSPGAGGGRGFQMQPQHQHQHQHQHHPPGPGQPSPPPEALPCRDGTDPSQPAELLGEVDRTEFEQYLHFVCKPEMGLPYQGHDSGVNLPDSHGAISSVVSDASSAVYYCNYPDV
MBP-SOX17^88–287: residues 88-287 of Q9H6I2
MBP-SOX17^216–414: residues 216-414 of Q9H6I2
UniProt P05412: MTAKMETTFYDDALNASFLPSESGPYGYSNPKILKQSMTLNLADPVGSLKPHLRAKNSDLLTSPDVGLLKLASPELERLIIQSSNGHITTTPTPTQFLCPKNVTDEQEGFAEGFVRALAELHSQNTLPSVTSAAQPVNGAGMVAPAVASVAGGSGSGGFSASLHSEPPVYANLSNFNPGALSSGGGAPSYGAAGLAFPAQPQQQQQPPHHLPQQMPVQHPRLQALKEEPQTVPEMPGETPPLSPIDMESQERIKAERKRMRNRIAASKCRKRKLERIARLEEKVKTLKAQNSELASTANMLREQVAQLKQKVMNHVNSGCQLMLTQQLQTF
MBP-JUN^100–331: residues 100-331 of P05412
GST-APC^954–1203 (P25054, residues 954-1203): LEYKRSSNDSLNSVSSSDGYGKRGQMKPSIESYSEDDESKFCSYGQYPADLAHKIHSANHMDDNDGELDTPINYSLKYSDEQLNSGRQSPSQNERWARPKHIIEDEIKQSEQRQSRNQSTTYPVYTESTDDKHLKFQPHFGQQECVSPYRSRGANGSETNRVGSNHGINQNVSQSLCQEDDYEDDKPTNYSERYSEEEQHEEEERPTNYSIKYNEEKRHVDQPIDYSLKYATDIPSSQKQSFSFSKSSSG
GST-APC^1512–1761 (P25054, residues 1512-1761): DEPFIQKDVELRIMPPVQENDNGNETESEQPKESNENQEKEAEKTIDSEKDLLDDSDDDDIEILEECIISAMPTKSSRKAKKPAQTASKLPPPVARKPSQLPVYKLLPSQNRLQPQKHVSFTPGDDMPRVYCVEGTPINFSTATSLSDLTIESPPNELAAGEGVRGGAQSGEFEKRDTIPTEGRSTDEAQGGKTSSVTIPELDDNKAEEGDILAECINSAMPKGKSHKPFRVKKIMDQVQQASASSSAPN
GST-APC^1956–2232 (P25054, residues 1956-2232): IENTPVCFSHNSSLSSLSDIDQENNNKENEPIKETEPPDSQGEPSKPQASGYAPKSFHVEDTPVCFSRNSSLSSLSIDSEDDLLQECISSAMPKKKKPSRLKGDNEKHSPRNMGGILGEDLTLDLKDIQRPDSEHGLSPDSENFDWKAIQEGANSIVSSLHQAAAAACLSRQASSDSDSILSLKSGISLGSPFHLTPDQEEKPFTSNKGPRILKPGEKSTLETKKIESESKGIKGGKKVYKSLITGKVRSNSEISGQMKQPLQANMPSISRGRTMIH
GST-APC^2539–2772 (P25054, residues 2539-2772): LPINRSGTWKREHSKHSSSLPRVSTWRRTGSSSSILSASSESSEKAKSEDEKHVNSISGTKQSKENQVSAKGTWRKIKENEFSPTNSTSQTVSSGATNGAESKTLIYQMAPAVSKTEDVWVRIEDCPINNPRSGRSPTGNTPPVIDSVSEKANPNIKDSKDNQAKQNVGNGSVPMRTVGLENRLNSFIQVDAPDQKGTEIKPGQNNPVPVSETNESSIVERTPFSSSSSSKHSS

In test [1] the target is MBP-TCF7^152–359 (human) (UniProt P36402).
In test [2] the target is MBP-SOX17^216–414 (human) (UniProt Q9H6I2).
Test [3] deals with MBP-SOX17^FL (human) (UniProt Q9H6I2).
For test [4], the target named is MBP-JUN^100–331 (human) (UniProt P05412).
The target of test [5] is MBP-SOX17^88–287 (human) (UniProt Q9H6I2).
Test [6] deals with MBP-JUN^FL (human) (UniProt P05412).
Test [7] deals with MBP-TCF7^FL (human) (UniProt P36402).

We go through four substances from publication PMC9714242.

Results are given in words; binding and its absence hold for the method and conditions named. In cells and extracts the contact can be indirect. Some entries that bind do so weakly or less than the wild type.

Turning to “GST-APC^954–1203 (from UniProt P25054 954-1203) (domain or fragment)”, the binding result in test [1], in test [2] and in test [3] was “binds” in each case.

Turning to “GST-APC^1512–1761 (from UniProt P25054 1512-1761) (domain or fragment)”, the binding result in test [4] is reported as “binds”.

For the substance “GST-APC^1956–2232 (from UniProt P25054 1956-2232) (domain or fragment)”, the binding result in test [2], in test [3] and in test [5] was “binds” each time.

Regarding “GST-APC^2539–2772 (from UniProt P25054 2539-2772) (domain or fragment)”, the binding result in test [1], in test [6], in test [4] and in test [7] was “binds” in each case.
